From patent US9920295B2, “Bioreactor for isolation of rare cells and methods of use” (The Trustees of the University of Pennsylvania, priority 2012, dated 2018)
For at least one compound, name, drawing or mass did not settle the structure. Some entries share one result that the patent states for a list of compounds.

Legend:
[1] = tested on: SCID-repopulating cells in NSG mice; assay: Engraftment in NSG mice and limiting dilution analysis; type: in vivo, mouse; conditions: 20 μM 3 days, bone marrow at 16 weeks post-transplantation
Experimental: BM-derived CD34^+ cells were cultured in SCF and Tpo (100 ng/ml each) for 4 days and treated under control conditions or Bleb (20 μM) for 3 days. The cells were injected intra-tibially into sub-lethally irradiated (250 rads) 6-10-week-old NSG mice within 24 hr after irradiation. Engraftment was assessed by analysis of blood or bone marrow using anti-mouse and anti-human CD47 antibodies using flow cytometry. The mice were sacrificed after sixteen weeks post-transplantation. For secondary engraftment, 50% of the bone marrow from femurs and tibias from each mouse was transplanted into one sub-lethally irradiated NSG mouse. 16 weeks after transplantation, blood and bone marrow were harvested from the mice and analyzed by flow cytometry. All animal experiments were done in accordance with institutional guidelines approved by the ethical committee from the University of Pennsylvania. The human repopulation HSC frequency was quantified by extreme limiting dilution analysis (ELDA) software (Hu and Smyth, 2009)

CD34+ cells = conditions: data from Boitano et al. (2010); cited from earlier work

Row | SMILES | frequency of repopulating cells (SRC) [1] | concentration showing toxic effect (CD34+ cells) [µM]
1 | Cc1ccc2c(c1)C(=O)C1(O)CCN(c3ccccc3)C1=N2 (racemic) [blebbistatin, (±)-blebbistatin] | 1 in 4.8×10^4 initial CD34+ cells | –
2 | Cc1ccccc1N=Nc1ccc(NC(=O)c2ccnn2C)c(C)c1 [CH-223191] | – | ≥ 0.5
